Four molecules from publication PMC6566343 can be followed below.

For assay [1], the target named is T1, BD-CIPK11 (full-length CIPK11, Calcineurin B-like interacting protein kinase 11) (Arabidopsis thaliana) (UniProt O22932).
T1 sequence: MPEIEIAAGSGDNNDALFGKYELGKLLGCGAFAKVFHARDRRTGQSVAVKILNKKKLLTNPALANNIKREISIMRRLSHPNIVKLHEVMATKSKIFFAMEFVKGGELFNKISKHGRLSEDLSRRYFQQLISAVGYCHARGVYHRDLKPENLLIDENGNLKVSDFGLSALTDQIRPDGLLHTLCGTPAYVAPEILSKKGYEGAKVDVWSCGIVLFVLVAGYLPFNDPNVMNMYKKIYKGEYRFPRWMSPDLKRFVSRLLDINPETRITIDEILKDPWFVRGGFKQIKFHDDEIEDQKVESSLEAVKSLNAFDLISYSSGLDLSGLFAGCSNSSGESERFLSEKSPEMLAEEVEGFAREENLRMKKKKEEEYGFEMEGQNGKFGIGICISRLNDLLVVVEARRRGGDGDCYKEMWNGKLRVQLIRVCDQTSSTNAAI
The assay is described as follows: two-hybrid; screen with full-length CIPK11 as bait.

Assay [2] concerns the target T1, BD-CIPK11 (full-length CIPK11, Calcineurin B-like interacting protein kinase 11) (Arabidopsis thaliana). The assay is described as follows: two-hybrid; BD and AD constructs co-transformed into S. cerevisiae AH109; growth on SD/-Trp/-Leu/-His/-Ade, 30 °C, four days.
For assay [3], the target named is T2, BD-CIPK11-KD (kinase domain of CIPK11) (Arabidopsis thaliana) (UniProt O22932).
T2 sequence: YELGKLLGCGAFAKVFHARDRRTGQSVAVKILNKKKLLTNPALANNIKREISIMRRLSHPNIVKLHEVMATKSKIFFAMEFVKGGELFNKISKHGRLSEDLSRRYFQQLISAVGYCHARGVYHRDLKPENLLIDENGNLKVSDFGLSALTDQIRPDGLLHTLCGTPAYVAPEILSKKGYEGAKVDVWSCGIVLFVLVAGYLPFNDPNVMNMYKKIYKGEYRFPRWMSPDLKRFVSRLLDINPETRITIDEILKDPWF
The description is as above.

Assay [4] addresses T3, CIPK11-KD-YN (kinase domain of CIPK11 for BiFC) (Arabidopsis thaliana) (UniProt O22932).
T3 sequence: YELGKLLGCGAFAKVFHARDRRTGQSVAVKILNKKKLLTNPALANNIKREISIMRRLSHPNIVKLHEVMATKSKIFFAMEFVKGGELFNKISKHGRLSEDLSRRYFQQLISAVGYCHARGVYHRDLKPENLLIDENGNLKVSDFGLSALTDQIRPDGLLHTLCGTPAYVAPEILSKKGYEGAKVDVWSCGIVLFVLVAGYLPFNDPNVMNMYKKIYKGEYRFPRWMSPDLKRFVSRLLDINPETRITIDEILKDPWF
The assay is described as follows: split reporter; BiFC with split YFP in N. benthamiana leaf epidermal cells, Agrobacterium infiltration, imaged after 48 h; DAPI for the nucleus.

Assay [5] concerns the target T4, CIPK11-YFPN (full-length CIPK11 for BiFC) (Arabidopsis thaliana) (UniProt O22932).
T4 sequence: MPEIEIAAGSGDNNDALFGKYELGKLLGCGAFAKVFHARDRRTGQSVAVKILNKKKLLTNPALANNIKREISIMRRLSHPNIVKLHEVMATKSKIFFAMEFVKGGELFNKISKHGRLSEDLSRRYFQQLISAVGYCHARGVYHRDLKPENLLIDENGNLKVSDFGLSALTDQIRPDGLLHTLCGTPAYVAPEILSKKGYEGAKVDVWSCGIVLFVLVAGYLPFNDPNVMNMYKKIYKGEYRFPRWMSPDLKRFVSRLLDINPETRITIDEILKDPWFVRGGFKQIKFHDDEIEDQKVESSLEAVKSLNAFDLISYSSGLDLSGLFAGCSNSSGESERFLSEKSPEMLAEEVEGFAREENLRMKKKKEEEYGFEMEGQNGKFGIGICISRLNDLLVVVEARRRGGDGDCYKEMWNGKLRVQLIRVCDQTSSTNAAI
The description is as above.

No constants are given. Whether binding was seen depends on the method and setting. For part of these data: In cells and extracts the contact can be indirect. Some results given as binding are weak or reduced against the parent protein; the word gives no strength. For part of these data: Where a sequence is shown, tags or fusion partners need not be part of it.

B1: Di19-3 (prey captured in the yeast two-hybrid screen) (protein, UniProt Q84J70 1-223)
chain: MDSDSWSDRLASATRRYQLAFPSRSDTFLGFEEIDGEEEFREEFACPFCSDYFDIVSLCCHIDEDHPMEAKNGVCPVCAVRVGVDMVAHITLQHANIFKMHRKRKPRRGGSYSTLSILRREFPDGNFQSLFGGSSCIVSSSSSSNVAADPLLSSFISPIADGFFTTESCISAETGPVKKTTIQCLPEQNAKKTSLSAEDHKQKLKRSEFVRELLSSTILDDSL
In the case of B1, the binding result in assay [1] is reported as “binds”.

B2: AD-Di19-3 (dehydration-induced19-3) (protein, UniProt Q84J70 1-223)
chain: MDSDSWSDRLASATRRYQLAFPSRSDTFLGFEEIDGEEEFREEFACPFCSDYFDIVSLCCHIDEDHPMEAKNGVCPVCAVRVGVDMVAHITLQHANIFKMHRKRKPRRGGSYSTLSILRREFPDGNFQSLFGGSSCIVSSSSSSNVAADPLLSSFISPIADGFFTTESCISAETGPVKKTTIQCLPEQNAKKTSLSAEDHKQKLKRSEFVRELLSSTILDDSL
Consider B2, for which the binding entry in assay [2] and in assay [3] was “binds” in each case.

B3: Di19-3-YFPC (Di19-3 for BiFC) (protein, UniProt Q84J70 1-223)
chain: MDSDSWSDRLASATRRYQLAFPSRSDTFLGFEEIDGEEEFREEFACPFCSDYFDIVSLCCHIDEDHPMEAKNGVCPVCAVRVGVDMVAHITLQHANIFKMHRKRKPRRGGSYSTLSILRREFPDGNFQSLFGGSSCIVSSSSSSNVAADPLLSSFISPIADGFFTTESCISAETGPVKKTTIQCLPEQNAKKTSLSAEDHKQKLKRSEFVRELLSSTILDDSL
On to B3, for which the binding result in assay [4] and in assay [5] was “binds” each time.

B4: AD-ABI5 (ABA insensitive 5) (protein, UniProt Q9SJN0 1-442)
chain: MVTRETKLTSEREVESSMAQARHNGGGGGENHPFTSLGRQSSIYSLTLDEFQHALCENGKNFGSMNMDEFLVSIWNAEENNNNQQQAAAAAGSHSVPANHNGFNNNNNNGGEGGVGVFSGGSRGNEDANNKRGIANESSLPRQGSLTLPAPLCRKTVDEVWSEIHRGGGSGNGGDSNGRSSSSNGQNNAQNGGETAARQPTFGEMTLEDFLVKAGVVREHPTNPKPNPNPNQNQNPSSVIPAAAQQQLYGVFQGTGDPSFPGQAMGVGDPSGYAKRTGGGGYQQAPPVQAGVCYGGGVGFGAGGQQMGMVGPLSPVSSDGLGHGQVDNIGGQYGVDMGGLRGRKRVVDGPVEKVVERRQRRMIKNRESAARSRARKQAYTVELEAELNQLKEENAQLKHALAELERKRKQQYFESLKSRAQPKLPKSNGRLRTLMRNPSCPL
With B4, the binding entry in assay [2] is listed as “binds”.
